Test results: the supplement of paper PMC8104966
Where a name gives a salt, the structure may show the parent alone. The list shows a part of the results. Repeats in this data set agree poorly, so a single value says little.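 Fusion between ACE2-bearing and full-length-spike-bearing U2OS cells was measured by imaging as the percentage of nuclei with both cell types' fluorescent markers. An inhibitory hit is a non-toxic compound whose fusion z-score is below -3, more than three standard deviations beneath the plate's DMSO wells.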

tested on: U2OS ACE2 x SARS-CoV-2 spike co-culture; test: cell-cell fusion (fraction fused) z-score vs plate DMSO control; higher = more fusion; details: 30 µM; 5 h; toxicity class: non-toxic, passed QC

Structure (SMILES) | cell-cell fusion (z-score)
Nc1cc(N2CCCCC2)nc(N)[n+]1[O-] [Minoxidil] | inactive: 2.52
CNCCCC1c2ccccc2C=Cc2ccccc21.Cl | inactive: 2.39
CNCCCC1c2ccccc2C=Cc2ccccc21.Cl [Protriptyline hydrochloride] | inactive: 1.64
Br.CN(C)CCCC1(c2ccc(F)cc2)OCc2cc(C#N)ccc21 (stereo unspecified) | inactive: 2.29
Br.CN(C)CCCC1(c2ccc(F)cc2)OCc2cc(C#N)ccc21 (stereo unspecified) [Citalopram hydrobromide] | inactive: 1.03
Nc1nc(F)nc2c1ncn2[C@@H]1O[C@H](CO)[C@@H](O)[C@@H]1O [Fludarabine] | inactive: 0.73
COc1cc(O)cc(C(=O)c2ccccc2)c1S(=O)(=O)O | inactive: 2.35
CN(C)CCn1nnnc1SCC1=C(C(=O)O)N2C(=O)[C@@H](NC(=O)Cc3csc(N)n3)[C@H]2SC1.Cl.Cl [Cefotiam hydrochloride] | inactive: 2.58
CO[C@@]12[C@H](COC(N)=O)C3=C(C(=O)C(C)=C(N)C3=O)N1C[C@@H]1N[C@@H]12 | inactive: 1.34
Cc1ccc(NC(=O)c2ccc(CN3CC[C@H](N(C)C)C3)c(C(F)(F)F)c2)cc1Nc1ncc(-c2cncnc2)cn1 [Bafetinib (INNO-406)] | inactive: 3.41
CC(=O)O[C@]1(C(C)=O)CC[C@H]2[C@@H]3C[C@H](C)C4=CC(=O)CC[C@]4(C)[C@H]3CC[C@@]21C [Medroxyprogesterone Acetate] | inactive: 2.15
Cc1cccc(C(=O)O)c1O | inactive: 1.4
Cl.Nc1ccn([C@@H]2O[C@H](CO)[C@@H](O)[C@@H]2O)c(=O)n1 [Cytosine-1-beta-D-arabinofuranoside hydrochloride] | inactive: 1.82
C=C1/C(=C\C=C2/CCC[C@]3(C)[C@@H]([C@H](C)CCCC(C)(C)O)CC[C@@H]23)C[C@@H](O)C[C@@H]1O [Calcitriol] | inactive: -1.02
Oc1ccc(OCc2ccccc2)cc1 [Monobenzone] | inactive: 1.75
O=c1c(-c2ccccc2)coc2ccccc12 | inactive: 2.97
O=C(/C=C/C#Cc1cccc(NS(=O)(=O)c2ccccc2)c1)NO [Oxamflatin] | inactive: 1.83
CCCCOc1ccc(OCCCN2CCOCC2)cc1.Cl [Pramoxine hydrochloride] | inactive: 2.34
O=C(Nc1cc(C(F)(F)F)cc(C(F)(F)F)c1)Nc1c(Br)cc(Br)cc1-c1nnn[nH]1 | inactive: 5.09
N=C1NC(=O)N2CC12 (stereo unspecified) | inactive: 3.69
O=C(O)c1cc(O)c2ccccc2n1 [Kynurenic acid] | inactive: 2.97
C#CCN(C)CC1=Cc2ccccc2Oc2ccccc21.O=C(O)/C=C\C(=O)O | inactive: 1.98
CC(C)C(C)/C=C/C(C)C1CCC2C3=CC=C4CC(O)CCC4(C)C3CCC21C (stereo unspecified) | inactive: 0.599
CC[C@@H](C(=O)C(C)[C@@H](O)[C@H](C)CCc1ccc(C)c(O)c1C(=O)[O-])C1OC(CC)(C2CC[C@](O)(CC)[C@H](C)O2)C[C@@H]1C.[Na+] (stereo partly specified) | active: -11.6

Random excerpt: six entries already listed, in no set order.
Structure (SMILES) | cell-cell fusion (z-score)
O=C(/C=C/C#Cc1cccc(NS(=O)(=O)c2ccccc2)c1)NO [Oxamflatin] | inactive: 1.83
CNCCCC1c2ccccc2C=Cc2ccccc21.Cl [Protriptyline hydrochloride] | inactive: 1.64
Cc1ccc(NC(=O)c2ccc(CN3CC[C@H](N(C)C)C3)c(C(F)(F)F)c2)cc1Nc1ncc(-c2cncnc2)cn1 [Bafetinib (INNO-406)] | inactive: 3.41
Nc1nc(F)nc2c1ncn2[C@@H]1O[C@H](CO)[C@@H](O)[C@@H]1O [Fludarabine] | inactive: 0.73
O=c1c(-c2ccccc2)coc2ccccc12 | inactive: 2.97
COc1cc(O)cc(C(=O)c2ccccc2)c1S(=O)(=O)O | inactive: 2.35

Further entries:

Structure (SMILES) | cell-cell fusion (z-score)
CC(C)COCC(CN(Cc1ccccc1)c1ccccc1)N1CCCC1.Cl (stereo unspecified) [Bepridil hydrochloride] [listing 1 of 2 here] | inactive: 2.25
CC(C)COCC(CN(Cc1ccccc1)c1ccccc1)N1CCCC1.Cl (stereo unspecified) | inactive: 0.709
Br.COc1ccc2c(c1)C13CCCCC1C(C2)N(C)CC3 (stereo unspecified) [Dextromethorphan hydrobromide monohydrate] | inactive: 2.26
CCCC(CCC)C(=O)[O][Na] [Valproic acid sodium salt (Sodium valproate)] | inactive: 1.23
C=C[C@H]1C[N@@]2CC[C@H]1C[C@H]2[C@H](O)c1ccnc2ccccc12 | inactive: 0.517
COc1cc(-c2coc3cc(OC)c(OC)c(OC)c3c2=O)cc(OC)c1OC | inactive: 1.31
Oc1cc(O)c2c(c1)O[C@H](c1cc(O)c(O)c(O)c1)[C@H](O)C2 | inactive: 2.6
C[C@@H](O)[C@H]1C(=O)N2C(C(=O)O)=C(SC3CN[C@H](C(=O)N(C)C)C3)[C@H](C)[C@H]12 (stereo partly specified) | inactive: 2.4
CCC(C)n1ncn(-c2ccc(N3CCN(c4ccc(OC[C@H]5CO[C@](Cn6cncn6)(c6ccc(Cl)cc6Cl)O5)cc4)CC3)cc2)c1=O.Cl.Cl (stereo partly specified) | inactive: 3.29
NC[C@H](O)c1ccc(O)c(O)c1.O.O=C(O)[C@H](O)[C@@H](O)C(=O)O [Noradrenaline bitartrate monohydrate] | active: -3
Cl.OC[C@H]1NC[C@@H](O)[C@@H]1O [1,4-Dideoxy-1,4-imino-D-arabinitol] | inactive: 3.19
O=C([O-])Cc1ccccc1Nc1c(Cl)cccc1Cl.[Na+] [Diclofenac sodium] | inactive: 4.03
CN(C)CCOC(C)(c1ccccc1)c1ccccn1.O=C(O)CCC(=O)O (stereo unspecified) [Doxylamine succinate] | inactive: 1.58
CN(C)CCOC(C)(c1ccccc1)c1ccccn1.O=C(O)CCC(=O)O (stereo unspecified) | inactive: 1.58
CCCCCCNC(=O)n1cc(F)c(=O)[nH]c1=O | inactive: 2.59
CCCCCCNC(=O)n1cc(F)c(=O)[nH]c1=O [Carmofur] | inactive: 1.86
COc1ccccc1CNCCCCCCNCCCCCCCCNCCCCCCNCc1ccccc1OC.Cl.Cl.Cl.Cl [Methoctramine tetrahydrochloride] | inactive: 2.19
N[C@@H](Cn1ccc(=O)c(O)c1)C(=O)O [L-Mimosine from Koa hoale seeds] | inactive: 1.8
O=C(O)C1=C[C@@H](O)[C@@H](O)[C@H](O)C1 | inactive: 1.99
Cc1cc(C)c(/C=C2\C(=O)Nc3ccc(Cl)cc32)[nH]1 | inactive: 4.14
CCC1(c2ccc(N)cc2)CCC(=O)NC1=O (racemic) [(±)-p-Aminoglutethimide] | inactive: 1.32
O=C1CN(/N=C/c2ccc([N+](=O)[O-])o2)C(=O)N1 | inactive: 2.45
Cc1c(NC(=O)OC[C@@H]2COCCN2)cn2ncnc(Nc3ccc4c(cnn4Cc4cccc(F)c4)c3)c12.Cl | inactive: 1.03
C[N+]1([O-])[C@@H]2CC[C@H]1C[C@@H](OC(=O)C(CO)c1ccccc1)C2 (stereo partly specified) | inactive: -1.46

Structure (SMILES) | cell-cell fusion (z-score)
CO[C@]1(NC(=O)C2S\C(S2)=C(/C(N)=O)C(O)=O)[C@H]2SCC(CSc3nnnn3C)=C(N2C1=O)C(O)=O (stereo partly specified) [Cefotetan] | inactive: 1.01
Cc1cc(C(=O)NOCCO)c(Nc2ccc(I)cc2F)n(C)c1=O | inactive: 1.13
CCCCNc1ccc(C(=O)OCCN(C)C)cc1.Cl | inactive: 2.5
CCCCNc1ccc(C(=O)OCCN(C)C)cc1.Cl [Tetracaine hydrochloride] | inactive: -0.0102
O=C1[C@H](CC[C@H](O)c2ccc(F)cc2)[C@@H](c2ccc(O)cc2)N1c1ccc(F)cc1 [Ezetimibe] | inactive: -1.61
O=C1C2CC3CC1CC(O)(C3)C2 | inactive: 2.08
C[C@H](c1ccc(F)cc1CCCC(=O)O)N(c1cc(F)ccc1F)S(=O)(=O)c1ccc(Cl)cc1 | inactive: 2.86
NCCCC(N)C(=O)O.NCCCC(N)C(=O)O.O=C(O)CCC(=O)C(=O)O | inactive: 0.648
CCc1cc2c(cc1N1CCC(N3CCOCC3)CC1)C(C)(C)c1[nH]c3cc(C#N)ccc3c1C2=O [Alectinib] | inactive: -2.02
C[n+]1ccccc1/C=N/O.[Cl-] [Pralidoxime Chloride] | inactive: 2.45
Fc1ccc2[nH]c(CN3CCN(c4ccccn4)CC3)cc2c1 | inactive: -0.481
Cl.O=C1Cc2cc(CCN3CCN(c4nsc5ccccc45)CC3)c(Cl)cc2N1 [Ziprasidone hydrochloride] | active: -3.56
CC(C)(C)C(=O)C(Oc1ccc(Cl)cc1)n1cncn1 (stereo unspecified) | inactive: 3.35
O=C(Cc1ccccc1Nc1c(Cl)cccc1Cl)[O][Na] [Diclofenac sodium] | inactive: 3.17
Cl.Clc1ccc(C(OCCN2CCCCC2)c2ccccc2)cc1 (stereo unspecified) | inactive: 0.23
C[C@@H]1C[C@H]2[C@@H]3CCC4=CC(=O)C=C[C@]4(C)[C@@]3(F)[C@@H](O)C[C@]2(C)[C@@]1(O)C(=O)CO [Dexamethasone] | inactive: 3.14
CC(=O)N(CC(O)CN(C(C)=O)c1c(I)c(C(=O)NCC(O)CO)c(I)c(C(=O)NCC(O)CO)c1I)c1c(I)c(C(=O)NCC(O)CO)c(I)c(C(=O)NCC(O)CO)c1I (stereo unspecified) | inactive: 2.66
CC(=O)OCC(=O)NCCCOc1cccc(CN2CCCCC2)c1.Cl | inactive: 0.0992
Cl.N[C@H](Cc1ccccc1)C(=O)O | inactive: 0.519
COc1ccc(-c2cc(=O)c3c(O)c(OC)c(OC)c(OC)c3o2)cc1 | inactive: 2.37
CC(C)COCC(CN(Cc1ccccc1)c1ccccc1)N1CCCC1.Cl (stereo unspecified) [Bepridil hydrochloride] [listing 2 of 2 here] | inactive: -2.19
Cc1nnc(NS(=O)(=O)c2ccc(N)cc2)s1 [Sulfamethizole] | inactive: 2.64
Cl.Cl.c1cnc2cc3c(cc2n1)C1CNCC3C1 [Varenicline] | inactive: 2.52
